In paper PMC7819943, “Rice protein-binding microarrays: a tool to detect cis-acting elements near promoter regions in rice”:
Some of the results follow.

Protein sequences, listed by entry. Tags and fused reporters are not part of them.
UniProt Q0JBA9, entry or part of it: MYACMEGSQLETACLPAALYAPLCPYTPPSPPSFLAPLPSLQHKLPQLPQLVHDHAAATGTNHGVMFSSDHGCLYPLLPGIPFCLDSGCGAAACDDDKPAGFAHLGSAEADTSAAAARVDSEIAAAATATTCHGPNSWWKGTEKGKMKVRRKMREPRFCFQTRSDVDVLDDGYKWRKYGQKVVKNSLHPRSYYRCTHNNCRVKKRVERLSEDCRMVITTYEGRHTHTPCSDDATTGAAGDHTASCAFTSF

The sequences below were run against OsWRKY34 (Oryza sativa, UniProt Q0JBA9 1-250) (assay: protein-binding microarray (RPBM); PBS, 2% BSA, 51.3 ng/ul salmon testes DNA, 50 uM zinc acetate, 200 nM TF, 25 C, 1 h; high values mean tight binding). Conditions: protein: recombinant; tags: N-terminal polyhistidine and DsRed monomer fusion (pET32a); label: CyDye5-dUTP incorporated in the synthesized complementary strand; 3' TTTTT single-stranded linker to array surface; dsDNA, one strand shown.
In short: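 Binding signal here means per-feature fluorescence intensity in arbitrary units. The values were read on an Axon 4000B scanner after a custom Agilent array, double-stranded by primer extension with Cy5-dUTP, was incubated with 200 nM protein at 25 °C for 1 h in PBS with 2% BSA, salmon testes DNA and 50 µM zinc acetate, then washed. The proteins were transcription factors with an N-terminal polyhistidine tag and DsRed, expressed in E. coli BL21-CodonPlus and purified on Ni–NTA.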

Sequence	binding signal
ACTCAACCATTTATTTTTCCAACCTACTTCCTTCGTCTCACGGAGTCACCTAGTGCAG	8990 fluorescence intensity (a.u.)
GTCAAACATGTGCTAAAAAGTCAACAGTGTCAAACATTTCCGGAGTCACCTAGTGCAG	9540 fluorescence intensity (a.u.)
CTACGCGCACACGACCCTACCACTCTATGGTTTTCCTTTTCGGAGTCACCTAGTGCAG	11300 fluorescence intensity (a.u.)
GATCACGCGGCGCCCACCCACGCTTTTACCCCTTCCTGGTCGGAGTCACCTAGTGCAG	8050 fluorescence intensity (a.u.)
CAACATCTGGTCGTAATAACTACGTTGAATATTACCCTCTCGGAGTCACCTAGTGCAG	10200 fluorescence intensity (a.u.)
GTGATATCCTCTTAGCTCATGCATTTCATTTCATCAGGTTCGGAGTCACCTAGTGCAG	8080 fluorescence intensity (a.u.)
TCACTTTTCTTCTTCTCCTCTTCACTTTTCTCTTCACCGTCGGAGTCACCTAGTGCAG	8940 fluorescence intensity (a.u.)
ATCACCGCACCACCTCTATTCGCGAATCCACTCCTACCTTCGGAGTCACCTAGTGCAG	10900 fluorescence intensity (a.u.)
CTCATCTCCTTCCTTGCTGCGTTTCGTTTCTTCCCCAAAACGGAGTCACCTAGTGCAG	12900 fluorescence intensity (a.u.)
TGTAGGAGTAGACTATATACAGGGCCTTCACTTCAGCCTTCGGAGTCACCTAGTGCAG	8480 fluorescence intensity (a.u.)
TTTCATTTTTTTCCATTACATCGTTCTAATTTCTTCGAATCGGAGTCACCTAGTGCAG	8680 fluorescence intensity (a.u.)
GCTAAAACCGTCGTCCAAACCGTTATGGGACTTATATTGCCGGAGTCACCTAGTGCAG	8520 fluorescence intensity (a.u.)
TCCTCCGAATCCCAATCTCTCGCAGTTCGTTCGAGGAGCTCGGAGTCACCTAGTGCAG	8540 fluorescence intensity (a.u.)
GCATCGACGGACCACACCTGCGCTCCACTCCCTAACCTCGCGGAGTCACCTAGTGCAG	8120 fluorescence intensity (a.u.)
AGCCATCGATCTTATTCTTATCCATGCTGCTCTGGAACTACGGAGTCACCTAGTGCAG	9350 fluorescence intensity (a.u.)
TCGTTCCTTTTATTTTCGCAGGCGGGCCGTTGCCCCAACTCGGAGTCACCTAGTGCAG	8230 fluorescence intensity (a.u.)
CGTATTTCTATCTGCTTAACTGGCCCGTTTGAAACTGATTCGGAGTCACCTAGTGCAG	8850 fluorescence intensity (a.u.)
GGGATAAGTTTTTCTGGGGATCTACTTGCGAAATAAGTTTCGGAGTCACCTAGTGCAG	10400 fluorescence intensity (a.u.)
CCTTATCCACTCCTACCGCTTTCCGCTCTCGTCCCTCCGGCGGAGTCACCTAGTGCAG	11700 fluorescence intensity (a.u.)
CCGCCCTTCTGCGCGCCGCCAACACCGTTCCTCCGCCGCGCGGAGTCACCTAGTGCAG	8230 fluorescence intensity (a.u.)
TGTACTGATATATTCTTCTACTATGCAGTTGACTTGTTGACGGAGTCACCTAGTGCAG	8660 fluorescence intensity (a.u.)

Quoted at random: three entries already listed, in no set order.
Sequence	binding signal
CCTTATCCACTCCTACCGCTTTCCGCTCTCGTCCCTCCGGCGGAGTCACCTAGTGCAG	11700 fluorescence intensity (a.u.)
ATCACCGCACCACCTCTATTCGCGAATCCACTCCTACCTTCGGAGTCACCTAGTGCAG	10900 fluorescence intensity (a.u.)
TCACTTTTCTTCTTCTCCTCTTCACTTTTCTCTTCACCGTCGGAGTCACCTAGTGCAG	8940 fluorescence intensity (a.u.)

Following part:

Sequence	binding signal
CGAGTTTACTTCTCTTGCTATGCACTTCTTTTCATCTTAACGGAGTCACCTAGTGCAG	8030 fluorescence intensity (a.u.)
CCTCGCATTTCTGTACTACGCCCTAAGTTACATTCTCTACCGGAGTCACCTAGTGCAG	11000 fluorescence intensity (a.u.)
GCCTCTGCCTCTCGCTCTCTCTCTCTAGGCGGCGCAAATGCGGAGTCACCTAGTGCAG	9480 fluorescence intensity (a.u.)
ACAAATCACCACCGACACGTTACTATTGATGTATATTATACGGAGTCACCTAGTGCAG	9870 fluorescence intensity (a.u.)
CGGTCGCGGGTCGTCCTCCTTCCGTTCCGCGTCCTCTCAACGGAGTCACCTAGTGCAG	8250 fluorescence intensity (a.u.)
AACTGTCGACAACTCCGTAGCTAGTCCCTTGTTTAATTTTCGGAGTCACCTAGTGCAG	11000 fluorescence intensity (a.u.)
TTGCTTTCGCCACTTCGGTCCAAGACCTTTGTTGATTTAGCGGAGTCACCTAGTGCAG	8590 fluorescence intensity (a.u.)
TGCAAAGTAGTAGTTGGGGATTTAATAGTGGCTTACAATACGGAGTCACCTAGTGCAG	8620 fluorescence intensity (a.u.)
TCGCATTGAATGGTATTTTTCCAATTAAAATCTCTTTGCACGGAGTCACCTAGTGCAG	8670 fluorescence intensity (a.u.)
GCAAAATTGACGCCCAAACTGCCCATTTTTTCATCGAGAACGGAGTCACCTAGTGCAG	8090 fluorescence intensity (a.u.)
GAGGAGGTGGTGGCGCGGCGTTCTTGGGGCTGGAGAGGGTCGGAGTCACCTAGTGCAG	8790 fluorescence intensity (a.u.)
GTATTTTTTGATGACCGAGGGATAGATCGTGCTTGACTTGCGGAGTCACCTAGTGCAG	9950 fluorescence intensity (a.u.)
GTTCTTGCTACTACAATCTGGCAGTCAGAGGCTGTTTTCCCGGAGTCACCTAGTGCAG	8440 fluorescence intensity (a.u.)
TCTGTCTATCCTTTGTAAAGTCACTTGCCCTTGCATTACTCGGAGTCACCTAGTGCAG	16500 fluorescence intensity (a.u.)
AGAGAGAGGTTGCTGTTTCGATGCGTATTTCTGCAGCTTTCGGAGTCACCTAGTGCAG	10100 fluorescence intensity (a.u.)
CCGTCTGACCAACTGGTCAGATCTGCAGGCCTCCTCTGAGCGGAGTCACCTAGTGCAG	9050 fluorescence intensity (a.u.)
CTTCTCTCGCGCTCGATTCGCTTTTGTTTGTTGGGTGCAACGGAGTCACCTAGTGCAG	11200 fluorescence intensity (a.u.)
TTCCCTTTTCTTCCTCTTTCTTCTCATCTTGGTTTCTTCCCGGAGTCACCTAGTGCAG	8730 fluorescence intensity (a.u.)
CACCCTCACCCTCACGCCCACCCGCACCCGGACGCGCACCCGGAGTCACCTAGTGCAG	9130 fluorescence intensity (a.u.)
TAACGCGTTATGTAAACTTTTTGACCAACCAACCGCGATCCGGAGTCACCTAGTGCAG	8800 fluorescence intensity (a.u.)
CCCACCCACCCATGCGGGACCCGATCCCCTCGCCCGCCTCCGGAGTCACCTAGTGCAG	9550 fluorescence intensity (a.u.)
